Data reported in paper PMC4947123.
No constants are given. Whether binding was seen depends on the method and setting. Binding seen in cells or lysates may run through a third protein. A yes stands for co-enrichment or nearness to the bait. Other partners may have been found. For some of these results: A no says only that the protein was not detected with the bait.

Sequences of proteins named here, by UniProt entry; tags and fusion partners are left off. A change or cut given only in a name is not applied to a line headed by its entry.
UniProt Q96CV9: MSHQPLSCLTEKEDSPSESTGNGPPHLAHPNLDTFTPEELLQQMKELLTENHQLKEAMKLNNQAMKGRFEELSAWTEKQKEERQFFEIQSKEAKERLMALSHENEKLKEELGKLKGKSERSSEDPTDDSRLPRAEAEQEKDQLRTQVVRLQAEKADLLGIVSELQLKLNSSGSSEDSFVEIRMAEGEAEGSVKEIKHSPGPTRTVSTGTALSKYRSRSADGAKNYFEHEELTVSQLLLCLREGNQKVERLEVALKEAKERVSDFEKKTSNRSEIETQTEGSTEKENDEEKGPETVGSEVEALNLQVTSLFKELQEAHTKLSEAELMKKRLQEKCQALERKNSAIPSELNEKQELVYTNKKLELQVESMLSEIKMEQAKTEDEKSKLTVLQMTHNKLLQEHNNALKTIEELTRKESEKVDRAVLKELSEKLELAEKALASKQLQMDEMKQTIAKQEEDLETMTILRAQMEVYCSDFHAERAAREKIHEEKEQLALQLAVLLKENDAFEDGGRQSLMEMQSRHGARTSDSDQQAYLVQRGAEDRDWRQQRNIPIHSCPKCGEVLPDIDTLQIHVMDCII
UniProt Q9UHD9: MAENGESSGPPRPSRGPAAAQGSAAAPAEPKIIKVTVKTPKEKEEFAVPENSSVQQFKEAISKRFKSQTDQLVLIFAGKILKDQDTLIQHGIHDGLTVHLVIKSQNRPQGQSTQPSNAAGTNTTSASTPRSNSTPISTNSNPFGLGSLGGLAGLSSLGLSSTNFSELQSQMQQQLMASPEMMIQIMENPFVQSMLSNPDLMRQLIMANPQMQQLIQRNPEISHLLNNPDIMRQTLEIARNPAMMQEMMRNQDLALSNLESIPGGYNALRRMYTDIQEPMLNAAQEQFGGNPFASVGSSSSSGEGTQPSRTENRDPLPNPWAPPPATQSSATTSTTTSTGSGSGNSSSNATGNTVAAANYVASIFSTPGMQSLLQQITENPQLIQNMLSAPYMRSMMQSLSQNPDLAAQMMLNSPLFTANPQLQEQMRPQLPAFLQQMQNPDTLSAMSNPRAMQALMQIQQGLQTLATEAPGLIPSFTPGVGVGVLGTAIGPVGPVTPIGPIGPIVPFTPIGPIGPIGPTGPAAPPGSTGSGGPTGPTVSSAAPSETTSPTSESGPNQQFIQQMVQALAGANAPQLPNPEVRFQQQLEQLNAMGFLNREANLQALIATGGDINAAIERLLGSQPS
UniProt Q96LT7: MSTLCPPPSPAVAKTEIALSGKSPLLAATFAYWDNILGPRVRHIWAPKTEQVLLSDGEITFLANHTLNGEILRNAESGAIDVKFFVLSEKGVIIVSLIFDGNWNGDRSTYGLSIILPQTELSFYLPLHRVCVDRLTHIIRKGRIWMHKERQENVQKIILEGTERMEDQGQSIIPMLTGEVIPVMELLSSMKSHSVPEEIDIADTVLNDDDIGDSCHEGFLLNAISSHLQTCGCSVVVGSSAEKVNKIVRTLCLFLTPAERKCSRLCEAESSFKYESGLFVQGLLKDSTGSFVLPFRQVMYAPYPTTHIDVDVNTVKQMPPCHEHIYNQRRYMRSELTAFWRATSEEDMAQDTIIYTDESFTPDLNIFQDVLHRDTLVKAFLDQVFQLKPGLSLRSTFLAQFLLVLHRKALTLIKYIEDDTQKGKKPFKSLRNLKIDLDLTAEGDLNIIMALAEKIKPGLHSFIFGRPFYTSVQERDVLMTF

Tests used:
Assay in all cases: affinity purification with mass spectrometry; bioGFP-tagged bait co-transfected with BirA in N2A cells; captured from lysate with magnetic streptavidin beads; gel, LC-MS/MS, MaxQuant, PERSEUS, Welch's t test with FDR 0.01 and S0 1.5, triplicate, against GFP or wild type
[1] = molecular target: bioGFP-tagged OPTN wild-type (UniProt Q96CV9)
[2] = molecular target: bioGFP-tagged OPTN E478G (UniProt Q96CV9)
[3] = molecular target: bioGFP-tagged UBQLN2 wild-type (UniProt Q9UHD9)
[4] = molecular target: bioGFP-tagged C9orf72 (UniProt Q96LT7)

B1: Dolichyl-diphospho-oligosaccharideprotein glycosyltransferase subunit 1 (Rpn1) (protein, UniProt Q91YQ5 26-608)
chain: SSEAPPLVNEDVKRTVDLSSHLAKVTAEVVLVHPGGGSTSRASSFVLALEPELESRLAHLGVQIKGEDEEDNNLEVRETKIKGKSGRFFTVKLPVALDPGSKISVVVETVYTHVLHPYPTQITQSEKQFVVFEGNHYFYSPYPTKTQTMRVKLASRNVESYTKLGNPSRSEDVLDYGPFKDIPAYSQDTFKVHYENNSPFLTITSMTRVIEVSHWGNIAVEENVDLKHTGAVLKGPFSRYDYQRQPDSGISSIRSFKTILPAAAQDVYYRDEIGNVSTSHLLILDDSVEMEIRPRFPLFGGWKTHYIVGYNLPSYEYLYNLGDQYALKMRFVDHVFDEQVIDSLTVKIILPEGAKNIQVDSPYDISRAPDELHYTYLDTFGRPVIVAYKKNLVEQHIQDIVVHYTFNKVLMLQEPLLVVAAFYILFFTVIIYVRLDFSITKDPAAEARMKVACITEQVLTLVNKRLGLYRHFDETVNRYKQSRDISTLNSGKKSLETEHKAVTSEIAVLQSRLKTEGSDLCDRVSEMQKLDAQVKELVLKSAVEAERLVAGKLKKDTYLENEKLSSGKRQELVTKIDHILDAL
In the case of B1, the binding [1] is reported as “binds” and the binding [2] is reported as “no binding”.

B2: ATPase WRNIP1 (Wrnip1) (protein, UniProt Q91XU0 1-660)
chain: MEVSGPEDDPFLSQLHQVQCPVCQQMMPAAHINSHLDRCLLLHPAGHAEPAAGSHRAGERAKGPSPPGAKRRRLSESSALKQPATPTAAESSEGEGEEGDDGGETESRESYDAPPTPSGARLIPDFPVARSSSPARKGMGKRPAAAAAAGSASPRSWDEAEAQEEEEAGVDGDGDADVDGEDDPGHWDADAADASFGVSAGRAHPRALAAEEIRQMLEGKPLADKMRPDTLQDYIGQSRAVGQETLLRSLLEANEIPSLILWGPPGCGKTTLAHIIANNSKKHSIRFVTLSATNAKTNDVRDVIKQAQNEKSFFKRKTILFIDEIHRFNKSQQDTFLPHVECGTITLIGATTENPSFQVNAALLSRCRVIVLEKLPVEAMVTILMRAINSLGIHVLDSSRPTDPLSHSSNCSSEPSVFIEDKAVDTLAYLSDGDARTGLNGLQLAVLARLSSRKVFCKKSGQTYSPSRVLITENDVKEGLQRSHILYDRAGEEHYNCISALHKAMRGSDQNASLYWLARMLEGGEDPLYVARRLVRFASEDIGLADPSALAQAVAAYQGCHFIGMPECEVLLAQCVVYFARAPKSIEVYSAYNNVKACLRSHQGPLPPVPLHLRNAPTRLMKDLGYGKGYKYNPMYSEPVDQDYLPEELRGVDFFKQRRC
With B2 the binding [1] was “binds” and the binding [2] was “no binding”.

B3: Ataxin-10 (Atxn10) (protein, UniProt P28658 1-475)
chain: MAAPRMPPSRLSGIMVPAPIQDLEALRALTALFKEQRNRETAPRTIFQRVLDILKKSTHAVELACRDPSQVEHLASSLQLITECFRCLRNACIECSVNQNSIRNLDTIGVAVDLVLLFRELRVEQDSLLTAFRCGLQFLGNVASRNEESQSIVWVHAFPELFMSCLNHPDKKIVAYCSMILFTSLNAERMKDLEENLNIAINVIEAHQKHPASEWPFLIISDHFLKSPELVEAMYGKLSNQERITLLDIVIAKLVGEEQLTKDDISIFVRHAELIANSFMDQCRNVLKLTSEPHTEDKEALVTIRLLDVLCEMTSNTELLGYLQVFPGLMERVIDVLRVIHEVGKESTNIFSPSDSLKAEGDIEHMTEGFKSHLIRLIGNLCYKNKENQDKVNELDGIPLILDSSNIDDNNPFMMQWVVYAVRNLTEDNSQNQDVIAKMEEQGLADASLLKKMGFEIEKSGDKLILKSNNDIPPP
B3 was tested, and the binding [3] was “binds”.

B4: Huntingtin-associated protein 1 (Hap1) (protein, UniProt O35668 1-628)
chain: MRPKEQVQSGAGDGTGSGDPAAGTPTTQPAVGPAPEPSAEPKPAPAQGTGSGQKSGSRTKTGSFCRSMIIGDSDAPWTRYVFQGPYGPRATGLGTGKAEGIWKTPAAYIGRRPGVSGPERAAFIRELQEALCPNPPPTKKITEDDVKVMLYLLEEKERDLNTAARIGQSLVKQNSVLMEENNKLETMLGSAREEILHLRKQVNLRDDLLQLYSDSDDDDDEEDEEDEEEGEEEEREGQRDQDQQHDHPYGAPKPHPKAETAHRCPQLETLQQKLRLLEEENDHLREEASHLDNLEDEEQMLILECVEQFSEASQQMAELSEVLVLRLEGYERQQKEITQLQAEITKLQQRCQSYGAQTEKLQQMLASEKGIHSESLRAGSYMQDYGSRPRDRQEDGKSHRQRSSMPAGSVTHYGYSVPLDALPSFPETLAEELRTSLRKFITDPAYFMERRDTHCREGRKKEQRAMPPPPAQDLKPPEDFEAPEELVPEEELGAIEEVGTAEDGQAEENEQASEETEAWEEVEPEVDETTRMNVVVSALEASGLGPSHLDMKYVLQQLSNWQDAHSKRQQKQKVVPKDSPTPQQQTNMGGGILEQQPRVPTQDSQRLEEDRATHSPSAREEEGPSGAT
In the case of B4, the binding [3] is reported as “binds”.

B5: solute carrier family (Slc)25a3 (protein, UniProt Q8VEM8 46-357)
chain: AVEEYSCEFGSMKYYALCGFGGVLSCGLTHTAVVPLDLVKCRMQVDPQKYKGIFNGFSITLKEDGVRGLAKGWAPTLIGYSMQGLCKFGFYEVFKALYSNILGEENTYLWRTSLYLASSASAEFFADIALAPMEAAKVRIQTQPGYANTLREAVPKMYKEEGLNAFYKGVAPLWMRQIPYTMMKFACFERTVEALYKFVVPKPRSECTKAEQLVVTFVAGYIAGVFCAIVSHPADSVVSVLNKEKGSTASQVLQRLGFRGVWKGLFARIIMIGTLTALQWFIYDSVKVYFRLPRPPPPEMPESLKKKLGLTE
In the case of B5, the binding [4] is reported as “binds”.

B6: Slc25a5 (protein, UniProt P51881 1-298)
chain: MTDAAVSFAKDFLAGGVAAAISKTAVAPIERVKLLLQVQHASKQITADKQYKGIIDCVVRIPKEQGVLSFWRGNLANVIRYFPTQALNFAFKDKYKQIFLGGVDKRTQFWRYFAGNLASGGAAGATSLCFVYPLDFARTRLAADVGKAGAEREFKGLGDCLVKIYKSDGIKGLYQGFNVSVQGIIIYRAAYFGIYDTAKGMLPDPKNTHIFISWMIAQSVTAVAGLTSYPFDTVRRRMMMQSGRKGTDIMYTGTLDCWRKIARDEGSKAFFKGAWSNVLRGMGGAFVLVLYDEIKKYT
In the case of B6, the binding [4] is reported as “binds”.

B7: Slc16a1 (protein, UniProt P53986 1-493)
chain: MPPAIGGPVGYTPPDGGWGWAVLVGAFISIGFSYAFPKSITVFFKEIEVIFSATTSEVSWISSIMLAVMYAGGPISSILVNKYGSRPVMIAGGCLSGCGLIAASFCNTVQELYLCIGVIGGLGLAFNLNPALTMIGKYFYKKRPLANGLAMAGSPVFLSTLAPLNQAFFDIFDWRGSFLILGGLLLNCCVAGSLMRPIGPEQVKLEKLKSKESLQEAGKSDANTDLIGGSPKGEKLSVFQTINKFLDLSLFTHRGFLLYLSGNVVMFFGLFTPLVFLSSYGKSKDFSSEKSAFLLSILAFVDMVARPSMGLAANTKWIRPRIQYFFAASVVANGVCHLLAPLSTTYVGFCVYAGVFGFAFGWLSSVLFETLMDLIGPQRFSSAVGLVTIVECCPVLLGPPLLGRLNDMYGDYKYTYWACGVILIIAGIYLFIGMGINYRLLAKEQKAEEKQKREGKEDEASTDVDEKPKETMKAAQSPQQHSSGDPTEEESPV
With B7 the binding [4] was “binds”.

B8: Slc25a4 (protein, UniProt P48962 1-298)
chain: MGDQALSFLKDFLAGGIAAAVSKTAVAPIERVKLLLQVQHASKQISAEKQYKGIIDCVVRIPKEQGFLSFWRGNLANVIRYFPTQALNFAFKDKYKQIFLGGVDRHKQFWRYFAGNLASGGAAGATSLCFVYPLDFARTRLAADVGKGSSQREFNGLGDCLTKIFKSDGLKGLYQGFSVSVQGIIIYRAAYFGVYDTAKGMLPDPKNVHIIVSWMIAQSVTAVAGLVSYPFDTVRRRMMMQSGRKGADIMYTGTLDCWRKIAKDEGANAFFKGAWSNVLRGMGGAFVLVLYDEIKKYV
B8 was tested, and the binding [4] was “binds”.
